Data taken from the supplement of paper PMC6445147.
Single values of this data set are uncertain.

B1: human tRNA-Pro; a variant is named by its letters at N, in order (parent)
chain: GGCTCGTTGGTCTAGNGGTATGATTCTCGCTTAGGGTGCGAGAGGTCCCGGGTTCNNATCCCGGACGAGCCC

Experiments:
[1] = variants of: B1; assay: tRNA Pol-III promoter activity, log2 (circRNA frequency / plasmid DNA frequency) (log2 ratio); higher = stronger promoter activity; conditions: HEK293T; construct: no Pol-II promoter ((-)CMV library)
[2] = variants of: B1; assay: tRNA 3' processing efficiency (processed reads / all reads, maximum-likelihood estimate) (fraction); higher = more efficient 3' processing; conditions: HEK293T; construct: no Pol-II promoter ((-)CMV library)
[3] = variants of: B1; assay: tRNA 5' processing efficiency (processed reads / all reads, maximum-likelihood estimate) (fraction); higher = more efficient 5' processing; conditions: HEK293T; construct: CMV Pol-II promoter ((+)CMV library, decapped)

Variant | tRNA Pol-III promoter activity (log2) [1] | tRNA 3' processing efficiency [2] | tRNA 5' processing efficiency [3]
GGCTCGTTGGTCTCTGGGTATGATTCTCGCTTAGGGTGCGAGAGGTCCCGGGTTCTAATCCCGGACGAGCCC | 3.94 | 0.4 | 
GGCTCGTTGGTCTGGAGGTATGATTCTCGCTTAGGGTGCGAGAGGTCCCGGGTTCTAGTCCCGGACGAGCCC | 6.25 | 0.3 | 
GGCTCGTTGGTCTGGGGGTATGATTCTCGCTTAGGGTGCGAGAGGTCCCGGGTTCTATCCCCGGACGAGCCC | 5.93 | 0.25 | 
GGCTCGTTGGTCTGGGGGTATGATTCTCGCTTAGGGTGCGAGAGGTCCCGGGTTCTATACCCGGACGAGCCC | 4.62 | 0.67 | 
GGCTCGTTGGTCTGGGGGTATGATTCTCGCTTAGGGTGCGAGAGGTCCCGGGTTCTATTCCCGGACGAGCCC | 3.26 | 0.4 | 
GGCTCGTTGGTCTGGGGGTATGATTCTCGCTTAGGGTGCGAGAGGTCCCGGGTTCTACTCCCGGACGAGCCC | 3.96 | 0.2 | 
GGCTCGTTGGTCTGGGGGTATGATTCTCGCTTAGGGTGCGAGAGGTCCCGGGTTCTAGTCCCGGACGAGCCC | 1.94 | 0.4 | 
GGCTCGTTGGTCTCGGGGTATGATTCTCGCTTAGGGTGCGAGAGGTCCCGGGTTCTAACCCCGGACGAGCCC | 6.45 | 0.62 | 
GGCTCGTTGGTCTCGCAGTATGATTCTCGCTTAGGGTGCGAGAGGTCCCGGGTTCTAATCCCGGACGAGCCC | 7.94 | 0.73 | 
GGCTCGTTGGTCTGGCGGTATGATTCTCGCTTAGGGTGCGAGAGGTCCCGGGTTCTAGTCCCGGACGAGCCC | 6.75 | 0.14 | 
GGCTCGTTGGTCTGGAGGTATGATTCTCGCTTAGGGTGCGAGAGGTCCCGGGTTCTAATCCCGGACGAGCCC | 3.3 | 0.26 | 
GGCTCGTTGGTCTCGGGATATGATTCTCGCTTAGGGTGCGAGAGGTCCCGGGTTCTAATCCCGGACGAGCCC | 2.93 | 0.22 | 
GGCTCGTTGGTCTCGGGTTATGATTCTCGCTTAGGGTGCGAGAGGTCCCGGGTTCTAATCCCGGACGAGCCC | 2.16 | 0.5 | 
GGCTCGTTGGTCTGGGGGTATGATTCTCGCTTAGGGTGCGAGAGGTCCCGGGTTCTAATCCCGGACGAGCCC | 0.811 | 0.54 | 0.33
GGCTCGTTGGTCTCGCGGTATGATTCTCGCTTAGGGTGCGAGAGGTCCCGGGTTCTATTCCCGGACGAGCCC | 5.53 | 0.33 | 
GGCTCGTTGGTCTGGTGGTATGATTCTCGCTTAGGGTGCGAGAGGTCCCGGGTTCTAATCCCGGACGAGCCC | 2.34 | 0.33 | 
GGCTCGTTGGTCTGGGGGTGTGATTCTCGCTTAGGGTGCGAGAGGTCCCGGGTTCTAATCCCGGACGAGCCC | 4.04 | 0.79 | 
GGCTCGTTGGTCTCGGGGCATGATTCTCGCTTAGGGTGCGAGAGGTCCCGGGTTCTAATCCCGGACGAGCCC | 6.26 | 0.4 | 
GGCTCGTTGGTCTGGCGGTATGATTCTCGCTTAGGGTGCGAGAGGTCCCGGGTTCTAATCCCGGACGAGCCC | 2.98 | 0.42 | 

Two entries from above, reformatted.
Variant	tRNA Pol-III promoter activity (log2) [1]	tRNA 3' processing efficiency [2]	tRNA 5' processing efficiency [3]
GGCTCGTTGGTCTGGTGGTATGATTCTCGCTTAGGGTGCGAGAGGTCCCGGGTTCTAATCCCGGACGAGCCC	2.34	0.33	
GGCTCGTTGGTCTGGGGGTGTGATTCTCGCTTAGGGTGCGAGAGGTCCCGGGTTCTAATCCCGGACGAGCCC	4.04	0.79	
